{"source": "patent US20130216615A1", "about": "“Pharmaceutical Compositions Containing Dimethyl Fumarate” (priority 2012, published 2013)", "system": "PGD2", "test": "PGD2 metabolites in plasma and urine", "format": "in vivo, human", "procedure": "The potential importance of PGD2 in the flushing response was assessed by measuring metabolites of PGD2 in plasma and urine. PGF2α, 9α was measured in plasma samples drawn immediately before dosing and at 0.5, 1, 2, 3, 4, 6, 8, 10 and 12 h on days 1 and 4. The concentrations of PGF2α, 9α were determined by gas chromatography-mass spectrometry (GC-MS) using d4-8-iso-PGF2α as internal standard. The major urinary metabolite of PGD2 is prostaglandin D-M (PGD-M). The levels of PGD-M in urine were assayed by GC-MS of pooled urine samples collected for 8 h on day −1, and between 0 h and 8 h on days 1 and 4. ^18O-labeled PGD-M was used as internal standard.", "note": "Structures can show the parent of a compound that is named as a salt."}
{"smiles": "COC(=O)/C=C/C(=O)OC", "note": "[DMF, dimethyl fumarate]", "values": [{"measurement": "Plasma concentration of 9α, 11β-PGF2α", "setting": "DMF alone, day 1, around 2-4 h", "value": "elevated"}, {"measurement": "Plasma concentration of 9α, 11β-PGF2α", "setting": "DMF alone, day 4", "value": "no major elevations"}, {"measurement": "urine PGD-M level", "setting": "DMF plus aspirin", "value": "not seen"}, {"measurement": "Plasma concentration of 9α, 11β-PGF2α", "setting": "DMF plus aspirin, day 1 and day 4", "value": "no elevation"}]}
